{
  "source": "the supplement of paper PMC7666118",
  "note": "The list shows a part of the results.",
  "data": [
    {"target": "T1, VKORC1L1 (UniProt Q8N0U8)", "T1 sequence (whole entry)": "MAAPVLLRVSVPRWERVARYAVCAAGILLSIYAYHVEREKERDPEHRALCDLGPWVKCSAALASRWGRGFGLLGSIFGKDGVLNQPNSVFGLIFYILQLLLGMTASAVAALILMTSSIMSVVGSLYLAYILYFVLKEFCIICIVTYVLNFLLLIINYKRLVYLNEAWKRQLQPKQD", "assay": "dose-dependent thermal stabilisation call (2D-TPP, DLPTP, 10% FDR) (binary (1 = stabilised)); higher = stabilised by the compound", "conditions": "system: HL-60 intact cells; concentration range 0.04-10 µM", "experimental": "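2D thermal proteome profiling in intact HL-60 cells treated with BRD-3811 (0, 0.04, 0.29, 2, 10 uM) for 90 min at 37 C, then heated 3 min at one of 12 temperatures (42-63.9 C). Soluble protein was quantified by TMT10 MS. The value is the DLPTP call of the paper: dose-dependent thermal stabilisation over all temperatures at 10% FDR (F-test of a dose-response against a flat model); one experiment, one call per tested protein.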", "values": [
      {"smiles": "COc1ccc(Cn2ccc3cc(C)c(C(=O)NO)cc32)cc1", "dose-dependent thermal stabilisation call": "inactive: 0"}
    ]}
  ]
}
